Experimental data as given in PMC10618185.
Results are given in words; binding and its absence hold for the method and conditions named. Binding seen in cells or lysates may run through a third protein. Here binding means that the protein was enriched with, or labelled near, the bait; the list need not be complete. For part of these data: No binding means not detected with the bait. Tags and fused reporters may be left off the sequences shown.

B1: endogenous VPS41, P49754 1-854 (protein)
chain: MAEAEEQETGSLEESTDESEEEESEEEPKLKYERLSNGVTEILQKDAASCMTVHDKFLALGTHYGKVYLLDVQGNITQKFDVSPVKINQISLDESGEHMGVCSEDGKVQVFGLYSGEEFHETFDCPIKIIAVHPHFVRSSCKQFVTGGKKLLLFERSWMNRWKSAVLHEGEGNIRSVKWRGHLIAWANNMGVKIFDIISKQRITNVPRDDISLRPDMYPCSLCWKDNVTLIIGWGTSVKVCSVKERHASEMRDLPSRYVEIVSQFETEFYISGLAPLCDQLVVLSYVKEISEKTEREYCARPRLDIIQPLSETCEEISSDALTVRGFQENECRDYHLEYSEGESLFYIVSPRDVVVAKERDQDDHIDWLLEKKKYEEALMAAEISQKNIKRHKILDIGLAYINHLVERGDYDIAARKCQKILGKNAALWEYEVYKFKEIGQLKAISPYLPRGDPVLKPLIYEMILHEFLESDYEGFATLIREWPGDLYNNSVIVQAVRDHLKKDSQNKTLLKTLAELYTYDKNYGNALEIYLTLRHKDVFQLIHKHNLFSSIKDKIVLLMDFDSEKAVDMLLDNEDKISIKKVVEELEDRPELQHVYLHKLFKRDHHKGQRYHEKQISLYAEYDRPNLLPFLRDSTHCPLEKALEICQQRNFVEETVYLLSRMGNSRSALKMIMEELHDVDKAIEFAKEQDDGELWEDLILYSIDKPPFITGLLNNIGTHVDPILLIHRIKEGMEIPNLRDSLVKILQDYNLQILLREGCKKILVADSLSLLKKMHRTQMKGVLVDEENICESCLSPILPSDAAKPFSVVVFHCRHMFHKECLPMPSMNSAAQFCNICSAKNRGPGSAILEMKK
B2: endogenous VPS39 (protein, UniProt Q96JC1 1-886)
chain: MHDAFEPVPILEKLPLQIDCLAAWEEWLLVGTKQGHLLLYRIRKDVVPADVASPESGSCNRFEVTLEKSNKNFSKKIQQIHVVSQFKILVSLLENNIYVHDLLTFQQITTVSKAKGASLFTCDLQHTETGEEVLRMCVAVKKKLQLYFWKDREFHELQGDFSVPDVPKSMAWCENSICVGFKRDYYLIRVDGKGSIKELFPTGKQLEPLVAPLADGKVAVGQDDLTVVLNEEGICTQKCALNWTDIPVAMEHQPPYIIAVLPRYVEIRTFEPRLLVQSIELQRPRFITSGGSNIIYVASNHFVWRLIPVPMATQIQQLLQDKQFELALQLAEMKDDSDSEKQQQIHHIKNLYAFNLFCQKRFDESMQVFAKLGTDPTHVMGLYPDLLPTDYRKQLQYPNPLPVLSGAELEKAHLALIDYLTQKRSQLVKKLNDSDHQSSTSPLMEGTPTIKSKKKLLQIIDTTLLKCYLHTNVALVAPLLRLENNHCHIEESEHVLKKAHKYSELIILYEKKGLHEKALQVLVDQSKKANSPLKGHERTVQYLQHLGTENLHLIFSYSVWVLRDFPEDGLKIFTEDLPEVESLPRDRVLGFLIENFKGLAIPYLEHIIHVWEETGSRFHNCLIQLYCEKVQGLMKEYLLSFPAGKTPVPAGEEEGELGEYRQKLLMFLEISSYYDPGRLICDFPFDGLLEERALLLGRMGKHEQALFIYVHILKDTRMAEEYCHKHYDRNKDGNKDVYLSLLRMYLSPPSIHCLGPIKLELLEPKANLQAALQVLELHHSKLDTTKALNLLPANTQINDIRIFLEKVLEENAQKKRFNQVLKNLLHAEFLRVQEERILHQQVKCIITEEKVCMVCKKKIGNSAFARYPNGVVVHYFCSKEVNPADT

Assays:
Assay in all cases: affinity purification with mass spectrometry; WT HeLa cells with single expression of Myc- or HA-tagged bait; IP with anti-Myc or anti-HA antibodies and magnetic beads; eluate resolved by SDS-PAGE, in-gel trypsin digestion, LC-MS/MS (MASCOT, Scaffold 5); high probability threshold
[1] = biological target: T1, HA-VPS3 (human (cDNA from HeLa Kyoto cells)), Q8WUH2; details: remark: other sources report otherwise
T1 chain: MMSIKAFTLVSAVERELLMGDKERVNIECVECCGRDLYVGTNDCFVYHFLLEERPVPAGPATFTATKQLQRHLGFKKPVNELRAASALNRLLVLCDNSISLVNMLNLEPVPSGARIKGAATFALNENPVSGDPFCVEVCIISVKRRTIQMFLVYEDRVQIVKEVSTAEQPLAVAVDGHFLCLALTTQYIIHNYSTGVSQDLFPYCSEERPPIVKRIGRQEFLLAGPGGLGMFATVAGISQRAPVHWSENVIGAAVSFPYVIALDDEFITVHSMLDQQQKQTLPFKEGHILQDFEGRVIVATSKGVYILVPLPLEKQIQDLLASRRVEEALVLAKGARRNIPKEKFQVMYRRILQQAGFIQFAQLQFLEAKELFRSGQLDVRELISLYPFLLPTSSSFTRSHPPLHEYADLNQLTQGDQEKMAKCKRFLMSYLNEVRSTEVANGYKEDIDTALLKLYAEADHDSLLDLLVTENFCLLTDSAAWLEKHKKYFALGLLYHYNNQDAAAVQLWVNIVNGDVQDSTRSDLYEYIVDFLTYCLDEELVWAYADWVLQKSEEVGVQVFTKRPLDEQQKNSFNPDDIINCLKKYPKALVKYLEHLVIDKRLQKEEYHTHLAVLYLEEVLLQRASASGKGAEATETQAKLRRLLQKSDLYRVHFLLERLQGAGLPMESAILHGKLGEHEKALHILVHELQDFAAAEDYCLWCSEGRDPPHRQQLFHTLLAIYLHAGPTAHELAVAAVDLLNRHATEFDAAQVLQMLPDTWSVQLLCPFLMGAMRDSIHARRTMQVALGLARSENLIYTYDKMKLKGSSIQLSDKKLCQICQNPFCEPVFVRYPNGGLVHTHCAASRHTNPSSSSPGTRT

[2] = biological target: T2, Myc-VPS8 (human (cDNA from HeLa Kyoto cells)), Q8N3P4; details: remark: other sources report otherwise
T2 chain: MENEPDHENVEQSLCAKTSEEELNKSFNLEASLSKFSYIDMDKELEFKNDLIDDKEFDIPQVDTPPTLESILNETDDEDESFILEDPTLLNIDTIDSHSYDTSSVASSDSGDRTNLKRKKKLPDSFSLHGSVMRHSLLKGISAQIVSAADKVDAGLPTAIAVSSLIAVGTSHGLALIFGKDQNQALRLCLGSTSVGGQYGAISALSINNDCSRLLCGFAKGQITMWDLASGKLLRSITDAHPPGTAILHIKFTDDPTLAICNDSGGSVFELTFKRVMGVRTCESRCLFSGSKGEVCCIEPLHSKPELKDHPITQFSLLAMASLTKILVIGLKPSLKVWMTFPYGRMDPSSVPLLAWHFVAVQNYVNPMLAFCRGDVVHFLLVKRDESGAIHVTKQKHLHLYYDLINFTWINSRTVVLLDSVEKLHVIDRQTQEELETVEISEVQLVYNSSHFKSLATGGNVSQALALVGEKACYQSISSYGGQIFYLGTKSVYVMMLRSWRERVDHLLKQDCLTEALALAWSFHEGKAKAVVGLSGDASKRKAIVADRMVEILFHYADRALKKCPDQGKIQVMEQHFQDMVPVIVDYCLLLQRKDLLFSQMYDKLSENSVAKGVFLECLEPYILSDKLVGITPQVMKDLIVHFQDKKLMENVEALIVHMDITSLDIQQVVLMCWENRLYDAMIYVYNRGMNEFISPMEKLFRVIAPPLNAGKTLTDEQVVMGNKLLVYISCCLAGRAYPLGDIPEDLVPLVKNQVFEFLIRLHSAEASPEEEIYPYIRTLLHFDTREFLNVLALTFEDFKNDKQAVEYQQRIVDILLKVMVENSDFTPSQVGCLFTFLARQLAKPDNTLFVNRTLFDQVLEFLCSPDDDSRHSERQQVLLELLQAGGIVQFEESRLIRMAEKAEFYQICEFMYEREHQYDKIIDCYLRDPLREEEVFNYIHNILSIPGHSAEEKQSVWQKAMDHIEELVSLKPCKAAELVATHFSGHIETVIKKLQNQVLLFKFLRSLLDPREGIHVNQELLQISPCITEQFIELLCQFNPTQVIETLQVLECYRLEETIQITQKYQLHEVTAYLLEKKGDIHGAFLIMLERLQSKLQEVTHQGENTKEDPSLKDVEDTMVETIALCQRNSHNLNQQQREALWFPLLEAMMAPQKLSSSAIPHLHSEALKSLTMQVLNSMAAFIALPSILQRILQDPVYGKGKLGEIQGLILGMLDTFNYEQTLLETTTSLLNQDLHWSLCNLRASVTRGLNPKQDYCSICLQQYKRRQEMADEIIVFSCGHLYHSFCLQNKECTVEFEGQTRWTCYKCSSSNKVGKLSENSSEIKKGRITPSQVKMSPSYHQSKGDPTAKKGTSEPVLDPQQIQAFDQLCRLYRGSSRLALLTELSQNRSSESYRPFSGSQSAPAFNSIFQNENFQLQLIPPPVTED

[3] = biological target: T3, HA-VPS3 (human (cDNA from HeLa Kyoto cells)) (UniProt Q8WUH2)
T3 sequence: T1 chain

| Binder | binding [1] | binding [2] | binding [3] |
| --- | --- | --- | --- |
| B1 | binds | no binding | – |
| B2 | – | – | no binding |
